# The list shows a part of the results.
# B1: BabA (Helicobacter pylori), O52269_HELPY (protein)
# chain: AEDDGFYMSAGYQIGEAAQMVKNTKGIQELSDNYENLSNLLTRYSTLNTLIKLSADPSAVNAARENLGASAKNLIGDTKNSPAYQAVLLAINAAVGFWNVVGYVTQCGGNANGQKSTSSTTIFNNEPGYRSTSITCSLNGHMPGYYGPMSIENFKKLNEAYQILQTALKNGLPALKENNGTVNVTYSYTCSGEGNDNCSLQTTGVTNQNNGTKTETQTIDGKSVTTTISSKVVDSQ
# Legend:
# Assay in all cases: glycan array binding signal (z-score within array); higher = stronger binding
# Details in all cases: glycan notation: IUPAC condensed, linker removed
# [1] = biological target: Gal(b1-3)GlcNAc(b1-3)Gal(b1-3)GlcNAc
# In short: (§1)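 Columns mapping to the same glycan were averaged after glycan names were converted to IUPAC-condensed notation. The data come from 3228 arrays in the Consortium for Functional Glycomics database, limited to those with an available protein sequence. Binding is reported as a within-array Z-score averaged across arrays of one protein sequence and across linkers.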
# [2] = biological target: Gal(b1-3)GlcNAc(b1-3)Gal(b1-4)Glc
# In short: as §1
# [3] = biological target: Gal(b1-3)GlcNAc(b1-3)Gal(b1-4)GlcNAc
# In short: as §1
# [4] = biological target: Gal(b1-3)GlcNAc(b1-3)Gal(b1-4)GlcNAc(b1-2)Man(a1-3)[Gal(b1-3)GlcNAc(b1-3)Gal(b1-4)GlcNAc(b1-2)Man(a1-6)]Man(b1-4)GlcNAc(b1-4)GlcNAc
# In short: as §1
# [5] = biological target: Gal(b1-3)GlcNAc(b1-3)Gal(b1-4)GlcNAc(b1-2)[Gal(b1-3)GlcNAc(b1-3)Gal(b1-4)GlcNAc(b1-6)]Man(a1-6)[Gal(b1-3)GlcNAc(b1-3)Gal(b1-4)GlcNAc(b1-2)Man(a1-3)]Man(b1-4)GlcNAc(b1-4)[Fuc(a1-6)]GlcNAc
# In short: as §1
# [6] = biological target: Gal(b1-3)GlcNAc(b1-3)Gal(b1-4)GlcNAc(b1-3)Gal(b1-4)GlcNAc(b1-2)[Gal(b1-3)GlcNAc(b1-3)Gal(b1-4)GlcNAc(b1-3)Gal(b1-4)GlcNAc(b1-6)]Man(a1-6)[Gal(b1-3)GlcNAc(b1-3)Gal(b1-4)GlcNAc(b1-3)Gal(b1-4)GlcNAc(b1-2)Man(a1-3)]Man(b1-4)GlcNAc(b1-4)[Fuc(a1-6)]GlcNAc
# In short: as §1
# [7] = biological target: Gal(b1-3)GlcNAc(b1-3)Gal(b1-4)GlcNAc(b1-6)[Gal(b1-3)GlcNAc(b1-3)]Gal(b1-4)Glc
# In short: as §1
# [8] = biological target: Gal(b1-3)GlcNAc(b1-3)Gal(b1-4)[Fuc(a1-3)]GlcNAc
# In short: as §1
# [9] = biological target: Gal(b1-3)GlcNAc(b1-3)Gal(b1-4)[Fuc(a1-3)]GlcNAc(b1-6)[Gal(b1-3)GlcNAc(b1-3)]Gal(b1-4)Glc
# In short: as §1
# [10] = biological target: Gal(b1-3)GlcNAc(b1-3)GalNAc
# In short: as §1
# [11] = biological target: Gal(b1-3)GlcNAc(b1-6)Gal(b1-4)GlcNAc
# In short: as §1
# [12] = biological target: Gal(b1-3)GlcNAc(b1-6)GalNAc
# In short: as §1
# [13] = biological target: Gal(b1-3)GlcNAc(b1-6)[Gal(b1-3)]GalNAc
# In short: as §1
# Gal(b1-3)GlcNAc6S = biological target: Gal(b1-3)GlcNAc6S
# In short: as §1
# [14] = biological target: Gal(b1-3)[Fuc(a1-4)]GlcNAc
# In short: as §1
# [15] = biological target: Gal(b1-3)[Fuc(a1-4)]GlcNAc(b1-2)Man
# In short: as §1
# [16] = biological target: Gal(b1-3)[Fuc(a1-4)]GlcNAc(b1-2)Man(a1-3)[Gal(b1-3)[Fuc(a1-4)]GlcNAc(b1-2)Man(a1-6)]Man(b1-4)GlcNAc(b1-4)GlcNAc
# In short: as §1
# [17] = biological target: Gal(b1-3)[Fuc(a1-4)]GlcNAc(b1-2)Man(a1-3)[Gal(b1-3)[Fuc(a1-4)]GlcNAc(b1-2)Man(a1-6)]Man(b1-4)GlcNAc(b1-4)[Fuc(a1-6)]GlcNAc
# In short: as §1
# [18] = biological target: Gal(b1-3)[Fuc(a1-4)]GlcNAc(b1-3)Gal(b1-3)[Fuc(a1-4)]GlcNAc
# In short: as §1
# [19] = biological target: Gal(b1-3)[Fuc(a1-4)]GlcNAc(b1-3)Gal(b1-4)GlcNAc
# In short: as §1
# [20] = biological target: Gal(b1-3)[Fuc(a1-4)]GlcNAc(b1-3)Gal(b1-4)[Fuc(a1-3)]GlcNAc
# In short: as §1
# [21] = biological target: Gal(b1-3)[Fuc(a1-4)]GlcNAc(b1-6)GalNAc
# In short: as §1
# [22] = biological target: Gal(b1-3)[GlcNAc(b1-6)]GalNAc
# In short: as §1
# [23] = biological target: Gal(b1-3)[Neu5Ac(a2-6)]GalNAc
# In short: as §1
# [24] = biological target: Gal(b1-3)[Neu5Ac(a2-6)]GlcNAc(b1-4)Gal(b1-4)Glc
# In short: as §1
# [25] = biological target: Gal(b1-3)[Neu5Ac(a2-6)]GlcNAc(b1-6)Gal(b1-4)Glc
# In short: as §1
# [26] = biological target: Gal(b1-3)[Neu5Ac(b2-6)]GalNAc
# In short: as §1
# Gal(b1-4)Gal = biological target: Gal(b1-4)Gal
# In short: as §1
# [27] = biological target: Gal(b1-4)GalNAc(a1-3)[Fuc(a1-2)]Gal(b1-4)GlcNAc
# In short: as §1
# [28] = biological target: Gal(b1-4)GalNAc(b1-3)[Fuc(a1-2)]Gal(b1-4)GlcNAc
# In short: as §1
# Gal(b1-4)Glc = biological target: Gal(b1-4)Glc
# In short: as §1
# Gal(b1-4)Glc6S = biological target: Gal(b1-4)Glc6S
# In short: as §1
# Gal(b1-4)GlcNAc = biological target: Gal(b1-4)GlcNAc
# In short: as §1
# [29] = biological target: Gal(b1-4)GlcNAc(a1-6)Gal(b1-4)GlcNAc
# In short: as §1
# Gal(b1-4)GlcNAc(b1-2)Man = biological target: Gal(b1-4)GlcNAc(b1-2)Man
# In short: as §1
# [30] = biological target: Gal(b1-4)GlcNAc(b1-2)Man(a1-3)Man(b1-4)GlcNAc(b1-4)GlcNAc
# In short: as §1
# [31] = biological target: Gal(b1-4)GlcNAc(b1-2)Man(a1-3)[Gal(b1-4)GlcNAc(b1-2)Man(a1-6)]Man(b1-4)GlcNAc(b1-4)GlcNAc
# In short: as §1
# [32] = biological target: Gal(b1-4)GlcNAc(b1-2)Man(a1-3)[Gal(b1-4)GlcNAc(b1-2)Man(a1-6)]Man(b1-4)GlcNAc(b1-4)[Fuc(a1-6)]GlcNAc
# In short: as §1
# [33] = biological target: Gal(b1-4)GlcNAc(b1-2)Man(a1-3)[Gal(b1-4)GlcNAc(b1-2)Man(a1-6)][Gal(b1-4)GlcNAc(b1-4)]Man(b1-4)GlcNAc(b1-4)[Fuc(a1-6)]GlcNAc
# In short: as §1
# [34] = biological target: Gal(b1-4)GlcNAc(b1-2)Man(a1-3)[Gal(b1-4)GlcNAc(b1-2)Man(a1-6)][GlcNAc(b1-4)]Man(b1-4)GlcNAc(b1-4)[Fuc(a1-6)]GlcNAc
# In short: as §1
# [35] = biological target: Gal(b1-4)GlcNAc(b1-2)Man(a1-3)[GlcNAc(b1-2)Man(a1-6)]Man(b1-4)GlcNAc(b1-4)GlcNAc
# In short: as §1
# [36] = biological target: Gal(b1-4)GlcNAc(b1-2)Man(a1-3)[GlcNAc(b1-4)][Gal(b1-4)GlcNAc(b1-2)Man(a1-6)]Man(b1-4)GlcNAc(b1-4)GlcNAc
# In short: as §1
# [37] = biological target: Gal(b1-4)GlcNAc(b1-2)Man(a1-3)[Man(a1-6)]Man(b1-4)GlcNAc(b1-4)GlcNAc
# In short: as §1
# [38] = biological target: Gal(b1-4)GlcNAc(b1-2)Man(a1-6)Man(b1-4)GlcNAc(b1-4)GlcNAc
# In short: as §1
# [39] = biological target: Gal(b1-4)GlcNAc(b1-2)Man(a1-6)[GlcNAc(b1-2)Man(a1-3)]Man(b1-4)GlcNAc(b1-4)GlcNAc
# In short: as §1
binder,measurement,setting,value
B1,glycan array binding signal (z-score),[1],-0.389
same,glycan array binding signal (z-score),[2],-0.912
same,glycan array binding signal (z-score),[3],-0.811
same,glycan array binding signal (z-score),[4],0.335
same,glycan array binding signal (z-score),[5],1.52
same,glycan array binding signal (z-score),[6],1.58
same,glycan array binding signal (z-score),[7],-0.337
same,glycan array binding signal (z-score),[8],-0.182
same,glycan array binding signal (z-score),[9],-0.446
same,glycan array binding signal (z-score),[10],-0.727
same,glycan array binding signal (z-score),[11],-0.528
same,glycan array binding signal (z-score),[12],-0.537
same,glycan array binding signal (z-score),[13],-0.573
same,glycan array binding signal (z-score),Gal(b1-3)GlcNAc6S,-0.709
same,glycan array binding signal (z-score),[14],-0.25
same,glycan array binding signal (z-score),[15],0.363
same,glycan array binding signal (z-score),[16],-0.759
same,glycan array binding signal (z-score),[17],1.12
same,glycan array binding signal (z-score),[18],0.038
same,glycan array binding signal (z-score),[19],-0.022
same,glycan array binding signal (z-score),[20],-0.378
same,glycan array binding signal (z-score),[21],0.145
same,glycan array binding signal (z-score),[22],-0.524
same,glycan array binding signal (z-score),[23],-0.4
same,glycan array binding signal (z-score),[24],-0.691
same,glycan array binding signal (z-score),[25],0.167
same,glycan array binding signal (z-score),[26],-1.02
same,glycan array binding signal (z-score),Gal(b1-4)Gal,-0.682
same,glycan array binding signal (z-score),[27],-0.217
same,glycan array binding signal (z-score),[28],-0.983
same,glycan array binding signal (z-score),Gal(b1-4)Glc,0.225
same,glycan array binding signal (z-score),Gal(b1-4)Glc6S,-0.359
same,glycan array binding signal (z-score),Gal(b1-4)GlcNAc,0.088
same,glycan array binding signal (z-score),[29],-0.787
same,glycan array binding signal (z-score),Gal(b1-4)GlcNAc(b1-2)Man,-0.128
same,glycan array binding signal (z-score),[30],0.06
same,glycan array binding signal (z-score),[31],-0.732
same,glycan array binding signal (z-score),[32],0.092
same,glycan array binding signal (z-score),[33],-0.482
same,glycan array binding signal (z-score),[34],-0.609
same,glycan array binding signal (z-score),[35],-0.437
same,glycan array binding signal (z-score),[36],-0.518
same,glycan array binding signal (z-score),[37],0.699
same,glycan array binding signal (z-score),[38],-0.286
same,glycan array binding signal (z-score),[39],-0.582

# Given with bars between the fields: entries from further up.
binder | measurement | setting | value
B1 | glycan array binding signal (z-score) | [4] | 0.335
same | glycan array binding signal (z-score) | [5] | 1.52
same | glycan array binding signal (z-score) | [6] | 1.58
